Measured values: PubChem BioAssay AID504444 (National Center for Advancing Translational Sciences (NCATS), 2011)
The whole screen tested about 360,000 compounds, of which about 7,500 (2.1%) were called active. This list was built around the results that the source calls inconclusive (neither active nor inactive); the mix of calls is not that of the screen. The call rests on the fitted dose curve; in most records, active means well fitted inhibition curve with a large enough effect; inconclusive means small, poorly fitted or top-dose-only effect, or effect the other way; inactive means flat fitted curve, though single readings scatter. Potencies of inconclusive entries are doubtful fits and often do not repeat.

Assay: Nrf2 qHTS screen for inhibitors; further: nearly all actives have a fitted effect of over 60% in size
Conditions: A549 ARE-Fluc reporter, luciferase luminescence, 18-24 h; activity change, negative = inhibition: at 46 µM (top of the series)
Summary of the method: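 Reporter: ARE-Fluc in A549. Exposure: 18-24 h, 37 °C, 5% CO2, 5% FBS OPTI-MEM. Readouts: fluorescent cytotoxicity (CellTiter-Fluor), then luminescent Nrf2 signal after BugLite.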
On the % scale 0 is the no-effect control and ±100 the full control effect; potency means the concentration at half of the fitted maximal effect.

Row | SMILES | Potency | activity change, negative = inhibition
1 | CCCOc1c(OC)cccc1C1CC(=O)Nc2cc3c(cc21)OCCO3 (stereo not drawn) | inconclusive: 23.1 µM [falling, single point] | –
2 | CC1CCc2c(sc(NC(=S)NC(=O)c3ccccc3)c2C#N)C1 (stereo not drawn) | inconclusive: 20.6 µM [activator, partial curve] | –
3 | Cc1ccc(-c2ccc([C@H]3[C@@H]4C=CCC[C@@]4(C)C(=O)N3Cc3ccccc3)c(F)c2)cc1 | – | inactive: -11.9%
4 | Cc1ccccc1-c1nnc(CN2CCC(C)CC2)o1 | inconclusive: 10.3 µM [activator, partial curve] | –
5 | CCC1CN(C(=O)N2CCC(C(=O)N3CCN(c4ccccc4)CC3)CC2)c2ccccc2O1 (stereo not drawn) | inconclusive: 23.1 µM [falling, single point] | –
6 | CC[C@]12C(=O)N(C)C[C@H]([C@@H]3C(=O)N(C)C(=O)[C@@H]31)N2C(=O)c1ccc(C)cc1 | – | inactive: 0.835%
7 | CC(Oc1ccc(Cl)cc1)C(=O)Nc1cccc(S(=O)(=O)N2CCOCC2)c1 (stereo not drawn) | inconclusive: 7.31 µM [falling, full curve, poor fit] | –
8 | Cc1ccc(C)c(N2CCN(C(=O)Cn3ncn4cccc4c3=O)CC2)c1 | active: 23.1 µM | –
9 | Nc1nc2ccccc2n1C(=O)c1cccs1 | inconclusive: 2.59 µM [activator, partial curve] | –
10 | CNc1cccnc1C=NNC(N)=S | active: 0.58 µM | –
11 | CC(C)C(=O)Nc1nc2ccc(S(C)(=O)=O)cc2s1 | inconclusive: 29.1 µM [activator, single point] | –
12 | Nc1nnc(-c2cccc(Cl)c2Cl)c(N)n1 | inconclusive: 29.1 µM [falling, partial curve, poor fit] | –
13 | N#CCCCN1C(=O)C(=C(C#N)C#N)c2ccccc21 | inconclusive: 25.9 µM [falling, single point] | –
14 | Nc1nc(-c2cccnc2)nn1C(=O)c1ccccc1Cl | inconclusive: 13 µM [falling, partial curve, poor fit] | –
15 | COc1ccc(CC(=O)Nc2cc(C)ccc2O)cc1OC | inconclusive: 29.1 µM [falling, single point] | –
16 | CC1CC(C)(C)N(C(=O)CN2CCN(C)CC2)c2ccccc21 (stereo not drawn) | – | inactive: -4.98%
17 | CC(=O)c1ccc(NC(=O)c2cc(Cl)sc2Cl)cc1 | inconclusive: 7.31 µM [activator, partial curve, poor fit] | –
18 | CN=c1c([N+](=O)[O-])nn(-c2ccc3c(c2)OCCO3)n1O | inconclusive: 23.1 µM [activator, partial curve] | –
19 | CCOc1ccccc1NC(=O)c1c2c(nc3ccccc13)C(=O)N(C1CCCCC1)C2 | inconclusive: 29.1 µM [falling, single point] | –
20 | Cc1ccc(OCc2cc(C(=O)N3CCN(c4ccccc4)CC3)no2)cc1C | inconclusive: 9.2 µM [activator, partial curve] | –
21 | O=C(CCS(=O)(=O)c1ccc2c(c1)NC(=O)CO2)NCCc1ccc(Cl)cc1 | – | inactive: 9.77%
22 | NN=C1c2cc(S(=O)(=O)NCCO)ccc2-c2ccc(S(=O)(=O)NCCO)cc21 | – | inactive: 19.9%
23 | O=C(C1CCC(CNS(=O)(=O)c2ccc(Br)s2)CC1)N1CCN(c2ccc(F)cc2)CC1 (stereo not drawn) | inconclusive: 2.31 µM [falling, full curve, poor fit] | –

Row | SMILES | Potency | activity change, negative = inhibition
24 | Cc1ccc(Cc2cnc(NC(=O)/C(C#N)=C/c3ccc(-c4ccc([N+](=O)[O-])cc4)o3)s2)cc1 | – | inactive: -6.16%
25 | COC(=O)c1ccccc1NC(=O)c1cccc(NC(=O)c2ccc(Br)o2)c1C | inconclusive: 0.92 µM [falling, full curve, poor fit] | –
26 | O=c1oc2cc(Oc3c([N+](=O)[O-])cc(C(F)(F)F)cc3[N+](=O)[O-])ccc2c2c1CCCC2 | inconclusive: 9.2 µM [falling, partial curve] | –
27 | CC(=O)c1c(C)[nH]c(C(=O)OCc2nnc(-c3ccccc3)o2)c1C | active: 20.6 µM | –
28 | CC[C@@]1(O)C(=O)OCc2c1cc1n(c2=O)Cc2cc3c(CN(C)C)c(O)ccc3nc2-1 | active: 2.31 µM | –
29 | CCOc1ccccc1-c1nc2c(s1)CCc1onc(-c3ccc(OC)cc3)c1-2 | inconclusive: 29.1 µM [activator, single point] | –
30 | CC1(C)CC(=O)C2=C(C1)NC(Nc1nc3ccccc3o1)=NC2c1cccnc1 (stereo not drawn) | – | inactive: 11.1%
31 | Fc1ccc(NC(=S)N/N=C/c2cccc(Br)c2)c(F)c1 | inconclusive: 3.26 µM [falling, full curve] | –
32 | COC(=O)N/N=C(C)\C=C\c1ccco1 | – | inactive: 13.5%
33 | COc1ccc(NS(=O)(=O)c2ccc(NC(=S)NC(=O)/C=C/c3ccc(C)cc3)cc2)nn1 | inconclusive: 18.4 µM [falling, single point] | –
34 | CCOC(=O)C1=C(CC)Nc2ccccc2N=C1NC(=O)Nc1ccc(Cl)c(Cl)c1 | inconclusive: 23.1 µM [falling, single point] | –
35 | Cc1ccc(C(=O)CSC2=C(C#N)C(c3ccco3)CC(=O)N2)c(C)c1 (stereo not drawn) | – | inactive: -14.6%
36 | CCCC/C(C)=N/NC(=O)CN(c1ccc(Br)cc1)S(=O)(=O)c1ccccc1 | – | inactive: 4.51%
37 | COc1ccc(N=Cc2c(O)[nH]c3ccccc23)cc1OC | inconclusive: 29.1 µM [falling, single point] | –
38 | CCCCn1c(CN(Cc2ccccc2)Cc2ccccc2)nc2c1c(=O)n(C)c(=O)n2C | – | inactive: 6.17%
39 | COc1ccc(Cn2ccc3nc(C)c(C(=O)Nc4cc(OC)c(OC)c(OC)c4)cc3c2=O)cc1 | inconclusive: 32.6 µM [activator, single point] | –
40 | CC(C)c1ccc(OCC(=O)NC(=S)Nc2ccc3c4c(cccc24)CC3)cc1 | inconclusive: 8.2 µM [falling, partial curve, poor fit] | –
41 | C=CCn1c(SCC(=O)c2cc(C)n(C(C)COC)c2C)nc2sc(C)c(C)c2c1=O (stereo not drawn) | inconclusive: 29.1 µM [falling, single point] | –
42 | CC(=O)c1c(C)[nH]c(C(=O)N(C)C(c2ccccc2)c2ccccc2)c1C | inconclusive: 32.6 µM [falling, single point] | –
43 | CCn1c(N2CCN(CC(=O)c3c(C)n(C)c4ccccc34)CC2)nc2c1c(=O)[nH]c(=O)n2C | inconclusive: 8.2 µM [falling, partial curve, poor fit] | –
44 | Cc1cc(C)n(-c2ccc(C(=O)C(C#N)c3nc4ccccc4n3C)cc2)n1 (stereo not drawn) | inconclusive: 0.146 µM [falling, partial curve, poor fit] | –
45 | CCOC(=O)CCSc1nc(N2CCOCC2)c2c(c1C#N)CC(C)(C)OC2 | – | inactive: -24.1%
46 | Cc1ccc(-n2nnc(-c3nccn3C)n2)cc1 | inconclusive: 2.91 µM [activator, partial curve, poor fit] | –

Row | SMILES | Potency | activity change, negative = inhibition
47 | N#C/C(=C\c1c[nH]c2ccccc12)C(=O)Nc1ncc(Cc2ccc(Cl)cc2Cl)s1 | inconclusive: 20.6 µM [falling, single point] | –
48 | O=C(CCN1CCCC1)c1cccs1 | – | inactive: 6.37%
49 | N#CC1=C(N)Oc2c(ccc3ccccc23)C1c1ccsc1 (stereo not drawn) | inconclusive: 5.17 µM [activator, partial curve] | –
50 | C/C(=N\NS(=O)(=O)c1ccc(C)cc1)c1cccs1 | inconclusive: 9.2 µM [falling, partial curve, poor fit] | –
51 | CCOc1ccc(NC(=O)CCc2c(C)nc3cc(-c4ccccc4OC)nn3c2C)cc1 | inconclusive: 6.51 µM [activator, single point] | –
52 | Cc1ccccc1OCCC(=O)Nc1cccc(S(=O)(=O)Nc2ccccc2Cl)c1 | – | inactive: -28%
53 | Cc1ccc(N(C)C(=O)N2CCN(S(=O)(=O)c3ccc4ccccc4c3)CC2)cc1 | active: 18.4 µM | –
54 | CCCc1nc2ccccc2c(=O)n1NC(=O)c1c(O)c2ccccc2[nH]c1=O | inconclusive: 23.1 µM [falling, partial curve] | –
55 | Cn1nc(C(C)(C)C)cc1C(=O)NCc1cc(F)cc2c1OCOC2 | inconclusive: 3.26 µM [falling, full curve] | –
56 | Cc1ccc(N(C)S(=O)(=O)c2ccc3[nH]c(=O)ccc3c2)cc1 | – | inactive: -1.11%
57 | COc1ccc(Cl)cc1NC(=O)CC1S/C(=N/N=C2CCCCCC2)NC1=O (stereo not drawn) | inconclusive: 25.9 µM [falling, partial curve, poor fit] | –
58 | c1cnc2ccc(-c3ccc4ncccc4c3)cc2c1 | inconclusive: 1.46 µM [activator, partial curve, poor fit] | –
59 | O=C(c1ccc(CS(=O)(=O)c2ccc(Br)cc2)o1)N1CCN(c2ccc(F)cc2)CC1 | inconclusive: 1.64 µM [falling, partial curve, poor fit] | –
60 | Cc1ccnn1CC(=O)N/N=C/c1cccs1 | – | inactive: 1.8%
61 | CCCN1C(=O)c2cc(C(=O)NC3CCCCCC3)ccc2C1O (stereo not drawn) | inconclusive: 1.3 µM [activator, partial curve] | –
62 | O=C(Nc1ccc(F)cc1)Nc1ccc2c(c1)OCO2 | inconclusive: 2.91 µM [activator, single point] | –
63 | CCOc1ccc(C2NC(=O)c3n[nH]c(C)c32)cc1 (stereo not drawn) | – | inactive: -2.27%
64 | COC(=O)c1scc(-c2ccc(C)cc2)c1S(=O)(=O)N1CCN(c2ccc(F)cc2)CC1 | inconclusive: 29.1 µM [falling, single point] | –
65 | Nc1c(C(=O)NCc2cccs2)nnn1CC(=O)Nc1cccc(F)c1 | inconclusive: 18.4 µM [activator, partial curve, poor fit] | –
66 | COc1ccc2nc(N3C(=O)/C(=C/c4ccc(Cl)cc4)NC3=S)sc2c1 | – | inactive: 9.8%
67 | CCOc1ccc(NC(=O)c2ccc3c(c2)OCCO3)cc1S(=O)(=O)N(CC)CC | inconclusive: 20.6 µM [falling, single point] | –
68 | COc1ccc(NC(=O)CCSc2nnnn2C)cc1 | inconclusive: 14.6 µM [activator, partial curve] | –

From entry 9 up to 11, as listed above:
Row | SMILES | Potency | activity change, negative = inhibition
9 | Nc1nc2ccccc2n1C(=O)c1cccs1 | inconclusive: 2.59 µM [activator, partial curve] | –
10 | CNc1cccnc1C=NNC(N)=S | active: 0.58 µM | –
11 | CC(C)C(=O)Nc1nc2ccc(S(C)(=O)=O)cc2s1 | inconclusive: 29.1 µM [activator, single point] | –
